For 2 molecules, binding results are on record in paper doi:10.1101/2025.09.18.677151.

In assay [1] the target is N. salsuginis TatBC complex (Nitratifractor salsuginis). In words: cryo-EM structure.
Assay [2] deals with N. salsuginis TatAC complex (TatA-His6, TatC-strep) (Nitratifractor salsuginis). The assay can be described thus: pull-down.

No constants are given. Whether binding was seen depends on the method and setting. For some assays here: Binding can be weak; no strength is given. For some assays here: Tags and fused reporters may be left off the sequences shown.

B1: CueO signal peptide (residues 1-28) (peptide, UniProt P36649 1-28)
peptide: MQRRDFLKYSVALGVASALPLWSRAVFA
As for B1, the binding entry in assay [1] is “binds”.

B2: E. coli MdoD, full length, Myc tagged (protein, UniProt P40120 33-551)
chain: ADSDIADGQTQRFDFSILQSMAHDLAQTAWRGAPRPLPDTLATMTPQAYNSIQYDAEKSLWHNVENRQLDAQFFHMGMGFRRRVRMFSVDPATHLAREIHFRPELFKYNDAGVDTKQLEGQSDLGFAGFRVFKAPELARRDVVSFLGASYFRAVDDTYQYGLSARGLAIDTYTDSKEEFPDFTAFWFDTVKPGATTFTVYALLDSASITGAYKFTIHCEKSQVIMDVENHLYARKDIKQLGIAPMTSMFSCGTNERRMCDTIHPQIHDSDRLSMWRGNGEWICRPLNNPQKLQFNAYTDNNPKGFGLLQLDRDFSHYQDIMGWYNKRPSLWVEPRNKWGKGTIGLMEIPTTGETLDNIVCFWQPEKAVKAGDEFAFQYRLYWSAQPPVHCPLARVMATRTGMGGFSEGWAPGEHYPEKWARRFAVDFVGGDLKAAAPKGIEPVITLSSGEAKQIEILYIEPIDGYRIQFDWYPTSDSTDPVDMRMYLRCQGDAISETWLYQYFPPAPDKRQYVDDRVMS
Consider B2, for which the binding entry in assay [2] is given as “no binding”.
